Literature values, collected in EP0616804A1 (priority 1993, dated 1994).
Like-named read-outs stand apart in the source and are kept apart here.

Conditions: rat, in vivo, cited from earlier work

**Q.** For `CN1C(=O)CN=C(c2ccccc2)c2cc(Cl)ccc21` [Diazepam], which “LD₅₀” value (ip) is on record?
**A.** Its value is 300 mg/kg.

**Q.** What about the “LD₅₀” value (po) of the same compound?
**A.** The value was 352 mg/kg.
